Laboratory results reported in article doi:10.1101/513135.
Results are given in words; binding and its absence hold for the method and conditions named. In cells and extracts the contact can be indirect. Some results given as binding are weak or reduced against the parent protein; the word gives no strength. Tags and fused reporters may be left off the sequences shown.

T1: Mdh1-GFP (S. cerevisiae) (UniProt P17505)
T1 sequence: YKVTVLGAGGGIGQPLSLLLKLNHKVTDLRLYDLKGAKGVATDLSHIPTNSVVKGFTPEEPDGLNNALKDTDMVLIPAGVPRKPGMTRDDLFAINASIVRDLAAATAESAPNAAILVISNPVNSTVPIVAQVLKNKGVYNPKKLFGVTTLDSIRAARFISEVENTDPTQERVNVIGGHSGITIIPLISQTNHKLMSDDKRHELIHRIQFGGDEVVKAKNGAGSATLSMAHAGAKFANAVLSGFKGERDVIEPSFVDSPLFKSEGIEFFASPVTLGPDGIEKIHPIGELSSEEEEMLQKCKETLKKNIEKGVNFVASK


Molecular target: T1, Mdh1-GFP (S. cerevisiae)
Experiment: co-IP

Binder | binding
Cit1-HA (protein, UniProt P00890 38-479) SSASEQTLKERFAEIIPAKAEEIKKFKKEHGKTVIGEVLLEQAYGGMRGIKGLVWEGSVLDPEEGIRFRGRTIPEIQRELPKAEGSTEPLPEALFWLLLTGEIPTDAQVKALSADLAARSEIPEHVIQLLDSLPKDLHPMAQFSIAVTALESESKFAKAYAQGVSKKEYWSYTFEDSLDLLGKLPVIASKIYRNVFKDGKITSTDPNADYGKNLAQLLGYENKDFIDLMRLYLTIHSDHEGGNVSAHTTHLVGSALSSPYLSLAAGLNGLAGPLHGRANQEVLEWLFKLREEVKGDYSKETIEKYLWDTLNAGRVVPGYGHAVLRKTDPRYTAQREFALKHFPDYELFKLVSTIYEVAPGVLTKHGKTKNPWPNVDSHSGVLLQYYGLTEASFYTVLFGVARAIGVLPQLIIDRAVGAPIERPKSFSTEKYKELVKKIESKN | binds
Idh1-HA (protein, UniProt P28834 12-360) ATAAQAERTLPKKYGGRFTVTLIPGDGVGKEITDSVRTIFEAENIPIDWETINIKQTDHKEGVYEAVESLKRNKIGLKGLWHTPADQTGHGSLNVALRKQLDIYANVALFKSLKGVKTRIPDIDLIVIRENTEGEFSGLEHESVPGVVESLKVMTRPKTERIARFAFDFAKKYNRKSVTAVHKANIMKLGDGLFRNIITEIGQKEYPDIDVSSIIVDNASMQAVAKPHQFDVLVTPSMYGTILGNIGAALIGGPGLVAGANFGRDYAVFEPGSRHVGLDIKGQNVANPTAMILSSTLMLNHLGLNEYATRISKAVHETIAEGKHTTRDIGGSSSTTDFTNEIINKLSTM | binds
Mic60-HA (protein, UniProt P36112 18-540) ASINTGTTVASKKASHKFRNTLWTIALSATAFYAGGIIYSQKNDKFGDFFSNNVPFAEDLLETYEHYHDRPTLFLEDSWDGLKAKSNDLLSGLTGSSQTRRSNRENIEVKKILSLEPLNIETENSDPQLKEIIGSLNDLINSLNDSNLSIPESEFNSIKKSNQNMLTNLSQLNETLKEALSNYMIQRTSEVITELNTQYENSKREFEKNLQKNLLQEVDEFKENLTKQKDKELEEKLKANEELLQAKHANEVGLLSITQVKEFNKIIKDKIEKERNGRLAHLEEINSEVNDLSKSIDRSSKILSKNEALVQLTFQVDEIKSRINNNNLPDVNIDKELSRLKLLSNLLSTFNKKSCCDDGDCCSCKKGNKNEGKEGKISCKCKPKTNPPSLLSVALDELESTCSGKKILSNEQIYNRWNLLADDFKTASLLPPNSGILGQLTAKVFSLFLFTKTGNPSNATDFDSVYARVGDNLRVSNLNDAVEEVVSLKGWPHKVCESWIEDARRKLEVQRLVEILDCEIRTL | binds
